Assay results: US12636373B2, “Prodrugs with a tridentate self-immolative linker” (The General Hospital Corporation, priority 2018, dated 2026)
Some of these results come from one statement about several compounds together.

Assay: Nano-encapsulation (loading) efficiency, PLGA-PEG nanoprecipitation
Assay type: physicochemical
Conditions: PLGA-PEG polymeric micellar formulation
Experimental: Initial experiments determined up to 1 mg of C16 prodrug could be used with the same polymer composition with no detectable loss in loading efficiency. For fluorescence-based imaging and flow-cytometric detection of NP uptake, PLGA-BODIPY630 was used instead of PLGA (described previously).^5 NP drug and Pd compound loadings were determined by absorbance (Nanodrop spectrophotometer), interpolation from a standard curve (R^2>0.99) after 1:10 dilution in DMF. Size and zeta potential measurements were performed using dynamic light scattering (Malvern Zetasizer). Prodrug loading efficiency is defined as the fraction of initial drug used in the nano-precipitation reaction that was successfully encapsulated and recovered in final NP product.

## C=CCOC(=O)Nc1ccc(C(OC(=O)N[C@H]2C[C@H](O[C@H]3C[C@](O)(C(=O)CO)Cc4c(O)c5c(c(O)c43)C(=O)c3c(OC)cccc3C5=O)O[C@@H](C)[C@H]2O)C(=O)NCCCCCCCCCCCCCCCC)cc1 (stereo partly shown) [C16proDOX, Alloc-SIL-C16-Dox]
  nano-encapsulation efficiency: > 90%
